# According to patent US20020035246A1:
# Amino acid sequences for entries named in this document (tags omitted). A change or cut given only in a name is not applied to a line headed by its entry.
# UniProt P04386: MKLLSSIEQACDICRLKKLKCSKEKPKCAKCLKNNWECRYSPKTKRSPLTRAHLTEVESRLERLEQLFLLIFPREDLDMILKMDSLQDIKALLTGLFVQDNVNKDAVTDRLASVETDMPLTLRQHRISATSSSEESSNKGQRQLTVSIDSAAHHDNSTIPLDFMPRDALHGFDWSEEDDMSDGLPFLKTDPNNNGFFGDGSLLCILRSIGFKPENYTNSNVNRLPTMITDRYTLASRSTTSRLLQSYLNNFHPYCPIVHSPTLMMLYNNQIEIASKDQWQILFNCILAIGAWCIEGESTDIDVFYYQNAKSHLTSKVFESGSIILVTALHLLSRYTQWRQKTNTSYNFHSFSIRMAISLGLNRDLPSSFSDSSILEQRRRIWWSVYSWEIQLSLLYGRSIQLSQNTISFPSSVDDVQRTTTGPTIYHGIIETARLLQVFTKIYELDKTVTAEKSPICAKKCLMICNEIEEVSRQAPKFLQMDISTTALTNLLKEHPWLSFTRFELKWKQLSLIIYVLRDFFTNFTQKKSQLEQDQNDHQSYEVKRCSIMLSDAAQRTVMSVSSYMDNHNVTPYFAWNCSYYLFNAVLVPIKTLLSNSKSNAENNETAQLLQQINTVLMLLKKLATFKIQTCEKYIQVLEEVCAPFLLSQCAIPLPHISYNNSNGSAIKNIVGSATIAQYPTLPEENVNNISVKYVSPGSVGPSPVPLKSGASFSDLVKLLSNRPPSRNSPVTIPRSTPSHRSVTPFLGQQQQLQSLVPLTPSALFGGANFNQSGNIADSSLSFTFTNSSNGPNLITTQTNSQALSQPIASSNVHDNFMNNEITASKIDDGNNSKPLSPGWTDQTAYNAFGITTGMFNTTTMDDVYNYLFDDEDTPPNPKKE
# UniProt P70340: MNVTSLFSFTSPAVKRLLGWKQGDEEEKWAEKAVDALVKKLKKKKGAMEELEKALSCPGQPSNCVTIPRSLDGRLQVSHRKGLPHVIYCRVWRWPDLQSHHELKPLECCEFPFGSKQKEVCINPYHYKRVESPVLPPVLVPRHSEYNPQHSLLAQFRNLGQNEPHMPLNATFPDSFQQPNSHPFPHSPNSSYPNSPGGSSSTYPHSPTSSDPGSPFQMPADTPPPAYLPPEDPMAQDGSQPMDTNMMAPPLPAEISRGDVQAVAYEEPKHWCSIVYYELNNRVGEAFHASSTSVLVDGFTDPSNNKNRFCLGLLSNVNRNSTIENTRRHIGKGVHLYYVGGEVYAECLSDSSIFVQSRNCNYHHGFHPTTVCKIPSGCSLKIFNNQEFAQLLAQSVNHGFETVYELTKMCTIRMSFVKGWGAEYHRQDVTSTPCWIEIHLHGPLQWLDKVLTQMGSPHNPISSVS
# UniProt Q62432: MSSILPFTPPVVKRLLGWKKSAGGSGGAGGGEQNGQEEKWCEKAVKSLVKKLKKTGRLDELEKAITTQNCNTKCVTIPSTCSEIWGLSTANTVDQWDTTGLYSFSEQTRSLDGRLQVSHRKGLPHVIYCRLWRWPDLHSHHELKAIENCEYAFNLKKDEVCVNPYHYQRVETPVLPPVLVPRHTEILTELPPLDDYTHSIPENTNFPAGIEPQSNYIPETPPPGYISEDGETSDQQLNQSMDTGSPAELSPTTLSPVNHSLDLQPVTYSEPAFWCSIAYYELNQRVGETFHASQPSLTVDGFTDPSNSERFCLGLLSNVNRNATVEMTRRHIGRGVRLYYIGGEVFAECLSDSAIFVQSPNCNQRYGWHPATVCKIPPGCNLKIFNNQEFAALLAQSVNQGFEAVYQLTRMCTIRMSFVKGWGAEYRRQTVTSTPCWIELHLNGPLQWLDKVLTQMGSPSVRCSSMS
# UniProt P97454: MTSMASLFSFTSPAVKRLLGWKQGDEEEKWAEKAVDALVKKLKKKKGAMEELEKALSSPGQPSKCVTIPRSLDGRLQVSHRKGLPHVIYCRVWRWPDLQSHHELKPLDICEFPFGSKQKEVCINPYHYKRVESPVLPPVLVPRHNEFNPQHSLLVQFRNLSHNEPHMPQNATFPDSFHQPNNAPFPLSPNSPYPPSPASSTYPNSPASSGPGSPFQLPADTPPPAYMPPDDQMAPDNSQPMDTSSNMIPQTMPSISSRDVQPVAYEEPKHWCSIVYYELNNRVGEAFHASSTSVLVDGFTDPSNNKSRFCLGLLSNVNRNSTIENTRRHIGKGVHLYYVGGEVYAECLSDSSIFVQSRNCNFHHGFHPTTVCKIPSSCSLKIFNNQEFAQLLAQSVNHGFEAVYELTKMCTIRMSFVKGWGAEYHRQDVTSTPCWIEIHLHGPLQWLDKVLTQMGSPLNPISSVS
# Results are given in words; binding and its absence hold for the method and conditions named. Some entries that bind do so weakly or less than the wild type. Tags and fused reporters may be left off the sequences shown.
# How the values were obtained:
# Experiment in all cases: yeast two-hybrid
# [1] = target: mouse SMAD1 C-domain bait (GAL4DBD fusion) (mouse) (UniProt P04386+P70340)
# [2] = target: mouse SMAD2 C-domain bait (GAL4DBD fusion) (mouse) (UniProt P04386+Q62432)
# [3] = target: mouse SMAD5 C-domain bait (GAL4DBD fusion) (mouse) (UniProt P04386+P97454)
binding [1],binding [2],binding [3],Binder
binds,binds,binds,"SIP1 (TH1) prey protein (GAL4TAD fused to the 626 aa polypeptide encoded by th1 cDNA) (protein, not shown: large carriers) CKKRFSHSGSYSSHISSKKCIGLISVNGRMRNNIKTGSSPNSVSSSPTNSAITQLRNKLENGKPLSMSEQTGLLKIKTEPLDFNDYKVLMATHGFSGSSPFMNGGLGATSPLGVHPSAQSPMQHLGVGMEAPLLGFPTMNSNLSEVQKVLQIVDNTVSRQKMDCKTEDISKLKGYHMKDPCSQPEEQGVTSPNIPPVGLPVVSHNGATKSIIDYTLEKVNEAKACLQSLTTDSRRQISNIKKEKLRTLIDLVTDDKMIENHSISTPFSCQFCKESFPGPIPLHQHERYLCKMNEEIKAVLQPHENIVPNKAGVFVDNKALLLSSVLSEKGLTSPINPYKDHMSVLKAYYAMNMEPNSDELLKISIAVGLPQEFVKEWFEQRKVYQYSNSRSPSLERTSKPLAPNSNPTTKDSLLPRSPVKPMDSITSPSIAELHNSVTSCDPPLRLTKSSHFTNIKAVDKLDHSRSNTPSPLNLSSTSSKNSHSSSYTPNSFSSEELQAEPLDLSLPKQMREPKGIIATKNKTKATSINLDHNSVSSSSENSDEPLNLTFIKKEFSNSNNLDNKSNNPVFGMNPFSAKPLYTPLPPQSAFPPATFMPPVQTSIPGLRPYPGLDQMSFLPHMAYTYP"
,binds,binds,"SIP5 prey protein (th76; partial open reading frame fused to the GAL4 transactivating domain in pACT-2) (protein, not shown: small tags and cut ends) AEFQSADTRGALARASVGLRRCEPWVTTASSCCPHQDPPILNQEQKNVSASCISKKALTRAQFGGQVLHSKESPVRITVSKKNTFVLGGIDCTYEKFENTDVNTISSLCVPIKNHSQSITSDNDVTTERTAKEDITEPNEEMMSRRTILQDPIKNTSKIKRSSPRPNLTLSGRSQRKCTKLETVVKEVKKYQAVHLQEWMIKVINNNTAICVEGKLVDMTDVYWHSNVIIERIKHNELRTLSGNIYILKGLIDSVSMKEAGYPCYLTRKFMFGFPHNWKEHIDKFLEQLRAEKKNKTRQETARVQEKQKSKKKDAEDKETYVLQKASITYDLNDNSLERTEVPTDPLNSLEQPTSGKERRHPLLSQKRAYVLITPLRNKKLIEQRCIDYSLSIEGISDFFKAKHQEESDSDIHGTPSSTSKSQETFEHRVGFEGNTKEDCNECDIITARHIQIPCPKSKQMLTNDFMKKNKLPSKLQKTENQIGVSQYCRSSSHLSSEENEVEIKSRTRGSQ"
